In paper PMC12442641 one finds binding data, which are given here for 3 substances.

Sequences of proteins named here, by UniProt entry; tags and fusion partners are left off.
UniProt O15550: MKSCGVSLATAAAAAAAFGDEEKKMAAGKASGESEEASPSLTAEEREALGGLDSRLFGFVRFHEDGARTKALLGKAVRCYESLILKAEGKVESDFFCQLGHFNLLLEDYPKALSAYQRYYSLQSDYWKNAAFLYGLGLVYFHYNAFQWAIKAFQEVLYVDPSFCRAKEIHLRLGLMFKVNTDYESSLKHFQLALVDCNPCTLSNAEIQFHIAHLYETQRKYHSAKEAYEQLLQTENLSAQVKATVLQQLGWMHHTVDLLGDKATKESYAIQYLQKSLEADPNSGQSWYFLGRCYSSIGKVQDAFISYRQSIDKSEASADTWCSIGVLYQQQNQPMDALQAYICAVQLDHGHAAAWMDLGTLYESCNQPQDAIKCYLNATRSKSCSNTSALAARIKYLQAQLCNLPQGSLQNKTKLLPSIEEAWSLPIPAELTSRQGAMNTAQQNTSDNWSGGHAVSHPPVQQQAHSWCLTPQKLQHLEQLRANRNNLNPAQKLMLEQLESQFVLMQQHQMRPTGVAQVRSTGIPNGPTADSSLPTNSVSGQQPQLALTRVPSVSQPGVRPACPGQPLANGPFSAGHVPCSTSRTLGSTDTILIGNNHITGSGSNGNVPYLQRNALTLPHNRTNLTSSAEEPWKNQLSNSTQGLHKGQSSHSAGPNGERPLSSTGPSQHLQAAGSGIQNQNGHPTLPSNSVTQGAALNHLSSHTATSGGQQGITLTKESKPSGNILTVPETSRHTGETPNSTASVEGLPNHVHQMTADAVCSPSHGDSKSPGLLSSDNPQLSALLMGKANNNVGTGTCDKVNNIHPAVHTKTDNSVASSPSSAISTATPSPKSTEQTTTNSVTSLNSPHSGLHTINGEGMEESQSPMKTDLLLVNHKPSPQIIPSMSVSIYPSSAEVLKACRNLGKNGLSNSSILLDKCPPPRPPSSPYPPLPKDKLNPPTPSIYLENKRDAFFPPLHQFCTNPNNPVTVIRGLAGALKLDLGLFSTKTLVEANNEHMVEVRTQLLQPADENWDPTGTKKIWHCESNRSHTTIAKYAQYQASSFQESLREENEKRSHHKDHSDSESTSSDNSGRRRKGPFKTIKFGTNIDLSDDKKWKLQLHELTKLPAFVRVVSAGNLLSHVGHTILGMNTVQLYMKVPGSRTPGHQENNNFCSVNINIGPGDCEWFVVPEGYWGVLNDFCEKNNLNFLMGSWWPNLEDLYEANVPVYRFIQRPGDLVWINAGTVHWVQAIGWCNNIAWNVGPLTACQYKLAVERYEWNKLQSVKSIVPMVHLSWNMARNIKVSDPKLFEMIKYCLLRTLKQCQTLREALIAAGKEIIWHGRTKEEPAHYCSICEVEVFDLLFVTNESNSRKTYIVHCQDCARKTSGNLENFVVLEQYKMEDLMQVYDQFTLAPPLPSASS

Results are given in words; binding and its absence hold for the method and conditions named. Binding seen in cells or lysates may run through a third protein. Some entries that bind do so weakly or less than the wild type.

The target in experiment [1] is UTX wildtype (UTX^WT, pFLAG-UTX) expressed in HEK293T cells (human) (UniProt O15550). Nature of the experiment: co-IP; HEK293T cells co-transfected with tagged G3BP1 and UTX constructs; lysates in IP buffer incubated with specific antibodies and Dynabeads Protein G overnight at 4 °C; immunoblot.
Experiment [2] concerns the target UTX (ubiquitously transcribed tetratricopeptide repeat on chromosome X), endogenous in Huh7 cells (human (endogenous in Huh7)) (UniProt O15550). Description: co-IP; endogenous proteins; cytoplasmic fraction (text: RG fraction) of Huh7 cells, control or TG- or SA-treated, immunoprecipitated with UTX antibody; immunoblot. (A western blot detects proteins with antibodies after separation by electrophoresis.)

For experiment [3], the target named is GB-UTX (ddGB-UTX) (human) (UniProt O15550). Description: split reporter; dimerization-dependent fluorescent protein (ddFP) system; live HepG2 cells transiently transfected with GA-G3BP1, GB-UTX and RFP-TIA1; untreated.
Experiment [4] has the same target. Description: split reporter; dimerization-dependent fluorescent protein (ddFP) system; live HepG2 cells transiently transfected with GA-G3BP1, GB-UTX and RFP-TIA1; treated with TG (5 µM, 4 h) or SA (500 µM, 1 h).

As for “EGFP-tagged G3BP1 (pEGFP-G3BP1) (from UniProt Q13283 1-466)”, the binding result in experiment [1] is reported as “binds”. Consider “G3BP1 (GTPase-activating protein SH3 domain-binding protein 1), endogenous in Huh7 cells (from UniProt Q13283 1-466)”, for which the binding result in experiment [2] is given as “binds”.

Take “GA-G3BP1 (ddGA(GFPA)-G3BP1) (from UniProt Q13283 1-466)”: the binding result in experiment [3] is “no binding (condition: untreated cells (without TG or SA))”; in experiment [4], “binds”.
